This note sets out measurements from article PMC8384837.

Conditions in all cases: yeast three-hybrid, YBZ-1, SC-Leu-His + 0.5 mM 3-AT, 4 days
In experiment [1] the target is T1, PUM1 PUF domain R2-VFQ R3-THE R4-TFR N899V + Y900F + C935T + R936H + Q939E + N971T + H972F + Q975R (UniProt Q14671).
T1 sequence: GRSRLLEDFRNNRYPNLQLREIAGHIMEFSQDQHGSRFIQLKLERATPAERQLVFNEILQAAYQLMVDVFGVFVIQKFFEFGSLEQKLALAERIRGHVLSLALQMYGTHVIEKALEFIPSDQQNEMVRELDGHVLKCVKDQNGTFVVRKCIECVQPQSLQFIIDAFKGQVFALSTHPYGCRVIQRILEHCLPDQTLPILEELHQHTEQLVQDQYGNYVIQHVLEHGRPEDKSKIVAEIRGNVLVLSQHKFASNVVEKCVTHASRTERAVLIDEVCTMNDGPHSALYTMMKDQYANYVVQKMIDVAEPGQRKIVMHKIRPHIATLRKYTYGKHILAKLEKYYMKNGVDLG

For experiment [2], the target named is T2, PUM1 PUF domain R3-THE R4-TFR C935T + R936H + Q939E + N971T + H972F + Q975R (UniProt Q14671).
T2 sequence: T1 sequence with V72N, F73Y

Experiment [3] addresses T3, PUM1 PUF domain R5-PHQ R6-SWD C1007P + R1008H + N1043S + Y1044W + Q1047D (UniProt Q14671).
T3 sequence: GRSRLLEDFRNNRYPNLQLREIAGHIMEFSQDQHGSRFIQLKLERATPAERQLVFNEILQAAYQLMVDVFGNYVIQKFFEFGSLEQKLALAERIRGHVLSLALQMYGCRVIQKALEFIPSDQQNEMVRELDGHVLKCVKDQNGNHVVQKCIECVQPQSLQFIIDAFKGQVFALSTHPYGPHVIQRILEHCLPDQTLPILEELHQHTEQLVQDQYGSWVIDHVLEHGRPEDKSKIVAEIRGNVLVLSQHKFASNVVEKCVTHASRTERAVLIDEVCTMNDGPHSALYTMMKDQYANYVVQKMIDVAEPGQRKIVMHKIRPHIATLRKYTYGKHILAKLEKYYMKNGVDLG

For experiment [4], the target named is T4, PUM1 PUF domain R6-SWD R7-NPG N1043S + Y1044W + Q1047D + S1079N + N1080P + E1083G (Homo sapiens) (UniProt Q14671).
T4 sequence: T3 sequence with P180C, H181R, S252N, N253P, E256G

For experiment [5], the target named is T5, PUM1 PUF domain R3-THE R4-TFR R7-NPG C935T + R936H + Q939E + N971T + H972F + Q975R + S1079N + N1080P + E1083G (Homo sapiens) (UniProt Q14671).
T5 sequence: T1 sequence with V72N, F73Y, S252N, N253P, E256G

Experiment [6] concerns the target T6, PUM1 PUF domain R6-SWD R7-NPG N1043S + Y1044W + Q1047D + S1079N + N1080P + E1083G (UniProt Q14671).
T6 sequence: T3 sequence with P180C, H181R, S252N, N253P, E256G

In experiment [7] the target is T7, PUM1 PUF domain R3-THE R4-TFR R7-NPG C935T + R936H + Q939E + N971T + H972F + Q975R + S1079N + N1080P + E1083G (UniProt Q14671).
T7 sequence: T1 sequence with V72N, F73Y, S252N, N253P, E256G

Numbering of substitutions follows the chain as printed. Some of the results follow. For part of these data: At the low end of the ranking the order means little. For part of these data: Construct or isoform of the protein are uncertain. Some results are limits rather than exact numbers.

Take “GGCUAGAACUAGUGGAUCCCCCGGCGCCCGGCGGCUCGAGCCCGGGUAAGUGGAAAAAGUCUGCAUGCCGCCGGGCGCCAUGCCUGCAGGUCGACUCUAGAAAACAUG”: the binding signal (log2 enrichment (interaction score)) is -5.6 in experiment [1], below -7.37 in experiment [2], -2.76 in experiment [3] and -0.67 in experiment [4].
For “GGCUAGAACUAGUGGAUCCCCCGGCGCCCGGCGGCUCGAGCCCGGGUAAGUGGGAGAAGUCUGCAUGCCGCCGGGCGCCAUGCCUGCAGGUCGACUCUAGAAAACAUG” the same measures were -5.05, -6.84, below -7.3 and -1.67.
On to “GGCUAGAACUAGUGGAUCCCCCGGCGCCCGGCGGCUCGAGCCCGGGUAAGAUCAUUCAGUCUGCAUGCCGCCGGGCGCCAUGCCUGCAGGUCGACUCUAGAAAACAUG”, for which the results for the binding signal (log2 enrichment (interaction score)) in experiment [1] and in experiment [5] were -4.86 and -1.26, respectively.
Take “GGCUAGAACUAGUGGAUCCCCCGGCGCCCGGCGGCUCGAGCCCGGGUAAGCUUAAGACGUCUGCAUGCCGCCGGGCGCCAUGCCUGCAGGUCGACUCUAGAAAACAUG”: the results for the binding signal (log2 enrichment (interaction score)) in experiment [1], in experiment [2] and in experiment [4] were -5.37, -6.7 and -1.06, respectively.
For the sequence “GGCUAGAACUAGUGGAUCCCCCGGCGCCCGGCGGCUCGAGCCCGGGUAAGUGUCCGUUGUCUGCAUGCCGCCGGGCGCCAUGCCUGCAGGUCGACUCUAGAAAACAUG”, the values for the binding signal (log2 enrichment (interaction score)) in experiment [1] and in experiment [5] were -4.78 and -1.24, respectively.
With “GGCUAGAACUAGUGGAUCCCCCGGCGCCCGGCGGCUCGAGCCCGGGUAAGUCGAGCUAGUCUGCAUGCCGCCGGGCGCCAUGCCUGCAGGUCGACUCUAGAAAACAUG”, the binding signal (log2 enrichment (interaction score)) in experiment [1] was -3.69; in experiment [2], below -4.27; in experiment [3], below -6.93; in experiment [4], -1.94.
As for “GGCUAGAACUAGUGGAUCCCCCGGCGCCCGGCGGCUCGAGCCCGGGUAAGUAGUCAUGGUCUGCAUGCCGCCGGGCGCCAUGCCUGCAGGUCGACUCUAGAAAACAUG”, the binding signal (log2 enrichment (interaction score)) was -5.59 in experiment [1], -6.57 in experiment [2] and below -6.51 in experiment [3].
Consider “GGCUAGAACUAGUGGAUCCCCCGGCGCCCGGCGGCUCGAGCCCGGGUAAGUAGAUGUUGUCUGCAUGCCGCCGGGCGCCAUGCCUGCAGGUCGACUCUAGAAAACAUG”, for which the results for the binding signal (log2 enrichment (interaction score)) in experiment [1], in experiment [2] and in experiment [3] were -5.57, below -7.57 and below -7.1, respectively.
For “GGCUAGAACUAGUGGAUCCCCCGGCGCCCGGCGGCUCGAGCCCGGGUAAGUAUAGUUAGUCUGCAUGCCGCCGGGCGCCAUGCCUGCAGGUCGACUCUAGAAAACAUG” the same measures were -5.69, -6.23 and below -7.43.
As for “GGCUAGAACUAGUGGAUCCCCCGGCGCCCGGCGGCUCGAGCCCGGGUAAGUUUCGAUGGUCUGCAUGCCGCCGGGCGCCAUGCCUGCAGGUCGACUCUAGAAAACAUG”, the values for the binding signal (log2 enrichment (interaction score)) in experiment [1] and in experiment [5] were -5.11 and -1.44, respectively.
Turning to “GGCUAGAACUAGUGGAUCCCCCGGCGCCCGGCGGCUCGAGCCCGGGUAAGUAGACCGAGUCUGCAUGCCGCCGGGCGCCAUGCCUGCAGGUCGACUCUAGAAAACAUG”, the binding signal (log2 enrichment (interaction score)) was -3.58 in experiment [1], -7.43 in experiment [2] and -7.8 in experiment [3].
As to “GGCUAGAACUAGUGGAUCCCCCGGCGCCCGGCGGCUCGAGCCCGGGUAAGUGGUGUAUGUCUGCAUGCCGCCGGGCGCCAUGCCUGCAGGUCGACUCUAGAAAACAUG”, the binding signal (log2 enrichment (interaction score)) in experiment [1] was -5.07; in experiment [5], -1.09.
With “GGCUAGAACUAGUGGAUCCCCCGGCGCCCGGCGGCUCGAGCCCGGGUAAGAAGACCAAGUCUGCAUGCCGCCGGGCGCCAUGCCUGCAGGUCGACUCUAGAAAACAUG”, the binding signal (log2 enrichment (interaction score)) in experiment [1] is -5.76; in experiment [2] it was -5.73; in experiment [3] it was below -7.13.
In the case of “GGCUAGAACUAGUGGAUCCCCCGGCGCCCGGCGGCUCGAGCCCGGGUAAGGUUAUCCAGUCUGCAUGCCGCCGGGCGCCAUGCCUGCAGGUCGACUCUAGAAAACAUG”, the binding signal (log2 enrichment (interaction score)) in experiment [1] was -5.51; in experiment [2], -6.75; in experiment [6] it was -2.08.
“GGCUAGAACUAGUGGAUCCCCCGGCGCCCGGCGGCUCGAGCCCGGGUAAGUGCAGAACGUCUGCAUGCCGCCGGGCGCCAUGCCUGCAGGUCGACUCUAGAAAACAUG”: the binding signal (log2 enrichment (interaction score)) in experiment [1] is -5.47; in experiment [2], below -7.42; in experiment [4], -1.66.
Consider “GGCUAGAACUAGUGGAUCCCCCGGCGCCCGGCGGCUCGAGCCCGGGUAAGUCGGUGCCGUCUGCAUGCCGCCGGGCGCCAUGCCUGCAGGUCGACUCUAGAAAACAUG”, for which the binding signal (log2 enrichment (interaction score)) in experiment [1] is -4.66; in experiment [5], below -1.63.
Regarding “GGCUAGAACUAGUGGAUCCCCCGGCGCCCGGCGGCUCGAGCCCGGGUAAGGUUACCAAGUCUGCAUGCCGCCGGGCGCCAUGCCUGCAGGUCGACUCUAGAAAACAUG”, the binding signal (log2 enrichment (interaction score)) in experiment [1] is -4.33; in experiment [7], -2.95.
Consider “GGCUAGAACUAGUGGAUCCCCCGGCGCCCGGCGGCUCGAGCCCGGGUAAGUAGAGAGGGUCUGCAUGCCGCCGGGCGCCAUGCCUGCAGGUCGACUCUAGAAAACAUG”, for which the binding signal (log2 enrichment (interaction score)) in experiment [1] is below -5.64; in experiment [3] it was -7.16.
As to “GGCUAGAACUAGUGGAUCCCCCGGCGCCCGGCGGCUCGAGCCCGGGUAAGUGUUCGUAGUCUGCAUGCCGCCGGGCGCCAUGCCUGCAGGUCGACUCUAGAAAACAUG”, the binding signal (log2 enrichment (interaction score)) in experiment [1] was -5.03; in experiment [5] it was below -0.99; in experiment [3] it was -7.68.
For “GGCUAGAACUAGUGGAUCCCCCGGCGCCCGGCGGCUCGAGCCCGGGUAAGUGGGCCUAGUCUGCAUGCCGCCGGGCGCCAUGCCUGCAGGUCGACUCUAGAAAACAUG” the same measures were -5.76, -1.11 and below -7.35.
Take “GGCUAGAACUAGUGGAUCCCCCGGCGCCCGGCGGCUCGAGCCCGGGUAAGCGGACAAAGUCUGCAUGCCGCCGGGCGCCAUGCCUGCAGGUCGACUCUAGAAAACAUG”: the binding signal (log2 enrichment (interaction score)) is -3.61 in experiment [1] and -1.53 in experiment [5].
In the case of “GGCUAGAACUAGUGGAUCCCCCGGCGCCCGGCGGCUCGAGCCCGGGUAAGGCCAAGAUGUCUGCAUGCCGCCGGGCGCCAUGCCUGCAGGUCGACUCUAGAAAACAUG”, the binding signal (log2 enrichment (interaction score)) in experiment [1] is -6.12; in experiment [7], -2.16.
In the case of “GGCUAGAACUAGUGGAUCCCCCGGCGCCCGGCGGCUCGAGCCCGGGUAAGUGGACAUUGUCUGCAUGCCGCCGGGCGCCAUGCCUGCAGGUCGACUCUAGAAAACAUG”, the binding signal (log2 enrichment (interaction score)) was -6.09 in experiment [1], -1.42 in experiment [5] and -6.65 in experiment [3].
